Measurements taken from PubChem BioAssay AID2221 (Broad Institute, 2009).
Out of some 290,000 compounds screened, about 2,200 (0.76%) were called active. Inconclusive means that the source gave no clear call. Such entries were picked first, then a sample of the others. No stated cut-off is given here; in the data, active means inhibition above about 30%; inconclusive means no clear call, values can overlap the other calls; inactive means below that.

Amino acid sequences for entries named in this document (tags omitted). A change or cut given only in a name is not applied to a line headed by its entry.
UniProt P9WHJ3: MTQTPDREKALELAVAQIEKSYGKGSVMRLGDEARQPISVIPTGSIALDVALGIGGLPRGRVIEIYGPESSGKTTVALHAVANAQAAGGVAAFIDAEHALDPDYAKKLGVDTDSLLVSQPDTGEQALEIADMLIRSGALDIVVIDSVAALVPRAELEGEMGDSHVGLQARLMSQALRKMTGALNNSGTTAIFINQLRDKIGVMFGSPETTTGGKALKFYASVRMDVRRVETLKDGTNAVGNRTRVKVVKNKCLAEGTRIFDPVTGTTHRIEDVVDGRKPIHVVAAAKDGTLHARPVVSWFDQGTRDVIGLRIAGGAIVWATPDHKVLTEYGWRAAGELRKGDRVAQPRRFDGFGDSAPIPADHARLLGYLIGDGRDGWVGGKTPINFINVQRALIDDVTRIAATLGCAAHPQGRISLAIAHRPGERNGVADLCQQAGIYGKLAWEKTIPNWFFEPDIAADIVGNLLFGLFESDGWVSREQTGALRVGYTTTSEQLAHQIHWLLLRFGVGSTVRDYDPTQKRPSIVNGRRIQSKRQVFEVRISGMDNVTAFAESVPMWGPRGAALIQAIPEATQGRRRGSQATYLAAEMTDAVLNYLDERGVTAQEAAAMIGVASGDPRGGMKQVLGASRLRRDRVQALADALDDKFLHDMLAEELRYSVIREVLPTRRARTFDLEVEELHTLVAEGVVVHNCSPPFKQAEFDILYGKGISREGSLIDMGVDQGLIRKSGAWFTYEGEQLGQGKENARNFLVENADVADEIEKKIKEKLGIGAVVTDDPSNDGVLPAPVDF

molecular target: Protein RecA (Mycobacterium tuberculosis (strain ATCC 25618 / H37Rv)) (UniProt P9WHJ3); assay: Mtb RecA intein splicing inhibitors, primary screen, biochemical, fluorescence, HTS (AID 2221); settings: cell-free RecA intein splicing, hits give high values, concentration not given here;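 further: 0% = vehicle wells and 100% = reference inhibitor control wells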

Compound	inhibition
Cc1c2ccncc2c(C)c2c1[nH]c1ccccc12	inconclusive: 22.7%
O=C(/C=C/c1c[nH]c2ccccc12)c1cccc2ccccc12	inconclusive: 29.5%
C=CCn1c(O)c(N=NC(=O)OC(C)(C)C)c2ccccc21	inactive: -3.06%
c1ccc(-c2ccc(C(c3ccccc3)n3ccnc3)cc2)cc1 (centres undefined)	inconclusive: 17.2%
CO[C@H]1C=CO[C@@]2(C)Oc3c(C)c(O)c4c(O)c(c(C=NN5CCN(C)CC5)c(O)c4c3C2=O)NC(=O)C(C)=CC=C[C@H](C)[C@H](O)[C@@H](C)[C@@H](O)[C@@H](C)[C@H](OC(C)=O)[C@@H]1C	inconclusive: 33.5%
CC(C)C[C@H]1C(=O)N2CCCC2[C@]2(O)O[C@](NC(=O)[C@@H]3C=C4c5cccc6[nH]cc(c56)CC4N(C)C3)(C(C)C)C(=O)N12 (some centres undefined)	inconclusive: 31.4%
Cc1cc(=O)oc2c(CN3CC(C)OC(C)C3)c(O)c(Cl)cc12 (centres undefined)	inactive: -121%
O=C1Nc2ccc3sc4ccccc4c3c2C1=O	inconclusive: 29.6%
O=C1NCC2=C1C(c1ccccc1)Nc1ccccc1N2 (centres undefined)	inconclusive: 33.4%

Nothing new here: 2 of the compounds above.
Compound	inhibition
Cc1c2ccncc2c(C)c2c1[nH]c1ccccc12	inconclusive: 22.7%
O=C(/C=C/c1c[nH]c2ccccc12)c1cccc2ccccc12	inconclusive: 29.5%
